Test: in vivo
Conditions: rat, therapeutic breadth, rat LD50 / rat CaCl2-arrhythmia ED50, read-out: Q LD50/ED50
Description: Die Verbindungen der allgemeinen Formel I zeigen bei intravenöser Anwendung an Ratten eine bessere Verträglichkeit als ihre Referenzpräparate.

`CCN(CC)CC(=O)Nc1c(C)cccc1C` [Lidokain] showed a selectivity ratio of 5.8.

From patent EP0515796A1, “5-Aminoacyl-5,10-dihydro-11H-dibenzo(b,e)(1,4)diazepin-11-ones, processes for their preparation, and their use as medicaments” (ARZNEIMITTELWERK DRESDEN GmbH, priority 1991, dated 1992)
